Measured values published in patent US20160046678A1 (ZYNGENIA, published 2016).
These are yes or no findings as the source states them, for the method shown. Some results given as binding are weak or reduced against the parent protein; the word gives no strength.

Chains of the proteins cited; added tags and fusions are not shown. Residues count along the entry.
UniProt P21860, residues 20-643: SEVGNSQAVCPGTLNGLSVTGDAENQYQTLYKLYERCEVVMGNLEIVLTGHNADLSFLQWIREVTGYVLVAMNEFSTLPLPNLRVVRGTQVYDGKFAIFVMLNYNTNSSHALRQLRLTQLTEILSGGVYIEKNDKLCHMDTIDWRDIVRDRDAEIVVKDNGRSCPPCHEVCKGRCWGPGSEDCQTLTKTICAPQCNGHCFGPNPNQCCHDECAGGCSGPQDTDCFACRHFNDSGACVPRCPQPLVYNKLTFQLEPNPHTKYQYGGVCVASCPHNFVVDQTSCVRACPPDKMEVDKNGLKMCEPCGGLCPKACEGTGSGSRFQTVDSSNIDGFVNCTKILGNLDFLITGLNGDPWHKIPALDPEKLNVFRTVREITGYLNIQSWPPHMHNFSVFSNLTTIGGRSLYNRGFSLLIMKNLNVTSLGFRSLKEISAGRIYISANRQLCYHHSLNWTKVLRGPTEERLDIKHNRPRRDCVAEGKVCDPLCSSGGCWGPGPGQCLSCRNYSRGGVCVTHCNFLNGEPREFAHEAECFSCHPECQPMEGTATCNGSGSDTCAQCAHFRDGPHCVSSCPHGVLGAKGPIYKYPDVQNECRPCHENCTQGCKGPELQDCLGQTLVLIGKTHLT

Molecular target: ErbB3 (UniProt P21860)
Experiment: MRD screen, Example 48

binding, binds:
HSEPYCPFLNPIWKEQCMVRS [EGC532]
TNEPYCPFLNPTWKQQCIART [EGC614]
RSEPYCPFYNPIWYDHCVALT [EGC585]
SSEPYCPFLNPTWKHECLLRT [EGC533]
LNEPYCPFLNPIWKDECLART [EGC525]
YSKPYCPFINPIWKEQCIARH [EGC548]
ISQPYCPFTNPTWLAECIARS [EGC590]
YSEPYCPFVNPTWLDQCIART [EGC605]
GSEPYCPFFNPIWKDQCITRF [EGC612]
KEEAYCPFLNPLWKDECVART [EGC601]
QGQPYCPFVNPIWYAECMTRT [EGC572]
RPEPYCPFKNPNWKEQCLARY [EGC578]
YNEPYCPFINPIWKAECIART [EGC535]
ESEPYCPFVNPIWKAECIARH [EGC544]
YNEPYCPFLNPTWKDQCLARI [EGC584]
YNEPYCPFVNPTWKAACVART [EGC546]
ANSWCHTLYWDLMYCVWQE [EGC623]
SLQAYCPFVNPTWKNECLARI [EGC561]
PESWCHTLYWNLQHCLSQE [EGC602]
ADSWCHTLYWNLRHCEIQE [EGC596]
QGEPYCPFLNPAWKDACIERL [EGC610]
LSEAYCPFLNPTWKQHCIALT [EGC563]
SSEPYCPFLNPTWKEQCIART [EGC597]
DTKPYCPFLNPIWKNQCIERT [EGC599]
RSEPYCPFLNPTWKEHCIART [EGC613]
SREIYCPFLNPIWLAECIARA [EGC526]
DSDPYCPFVNPIWKAQCIARS [EGC604]
YSEPYCPFLNPTWKAQCMAMI [EGC606]
VIEPYCPFLNPTWKDHCIART [EGC541]
LSGLYCPFLNPTWKDQCIARM [EGC589]
MSDPYCPFQNPIWKAACIART [EGC542]
PSKPYCPFLNPYWKAECMSRS [EGC566]
SSEPYCPFINPTWKQECIART [EGC579]
KSEPYCPFLNPIWKDQCIVRS [EGC540]
VSEPYCPFLNPYWKDQCIARH [EGC583]
SKDPYCPFVNPIWKHECIVRS [EGC529]
TIEPYCPFLNPIWKDQCIARS [EGC624]
ISEPYCPFLNPTWKDACIARS [EGC568]
KGQPYCPFLNPIWKEQCLART [EGC620]
SSEAYCPFLNPTWKQECIARL [EGC621]
IRKPYCPFLNPTWYNECIQRS [EGC609]
TRDPYCPFLNPIWKDECFART [EGC600]
LSEPYCPFLNPTWKAACLARI [EGC608]
LIEPYCPFLNPTWYDQCIARS [EGC554]
NSEPYCPFLNPSWKAQCIARS [EGC595]
LREPYCPFLNPTWKAECIARI [EGC617]
LNTPYCPFINPTWKDECLARS [EGC592]
PDSWCHTLYWDLLYCVNQE [EGC570]
ESEPYCPFTNPTWKAQCIARS [EGC534]
MSEPYCPFQNPTWKHECIART [EGC603]
YEEHCRLFPADWICSLLQ [EGC594]
MSEPYCPFLNPTWKEQCLARS [EGC564]
KSEPYCPFLNPYWKDQCIARS [EGC616]
TSEPYCPFENPIWKAQCISRS [EGC615]
RSEPYCPFLNPTWKEQCIARQ [EGC538]
ISEPYCPFQNPTWKFQCLIRS [EGC536]
LTEPYCPFLNPTWKDQCLARR [EGC528]
REVPYCPFLNPIWKEQCIIRT [EGC557]
NPEPYCPFLNPIWKEQCILRS [EGC586]
LNEPYCPFLNPIWKNQCIARL [EGC565]
TTEPYCPFLNPIWKDQCIARW [EGC582]
GRETYCPFLNPIWKAQCLART [EGC539]
